Test results: patent US20250241308A1, “COMPOSITIONS AND METHODS FOR CONTROLLING PESTS” (PYRONE SYSTEMS, INC., priority 2022, published 2025)

Columns and labels:
Assay type in all cases: in vivo
[1] = test system: house fly strain CAR21 (S); experiment: Median lethal dose determination, house fly CAR21
Method: (§1) 24-hour median lethal dose determinations of pogostone and permethrin were performed in three house fly strains and one stable fly strain. The KS17 resistant strain below is simultaneously resistant to organophosphates, carbamates, and synthetic pyrethroids.
(§2) 48-hour median lethal dose determinations of pogostone and permethrin were performed in three house fly strains. The KS17 resistant strain below is simultaneously resistant to organophosphates, carbamates, and synthetic pyrethroids.

house fly strain WHF (R) = experiment: Median lethal dose determination, house fly WHF
Method: as §1, §2

[2] = test system: house fly strain KS17 (R); experiment: Median lethal dose determination, house fly KS17
Method: as §1, §2

Row | Structure (SMILES) | Slope ([1]; 24-hour) | Slope ([1]; 48-hour) | Slope (house fly strain WHF (R); 24-hour) | Slope (house fly strain WHF (R); 48-hour) | Slope ([2]; 24-hour) | Slope ([2]; 48-hour)
1 | Cc1cc(O)c(C(=O)CCC(C)C)c(=O)o1 [pogostone] | 4.6 | 4.7 | 2.7 | 2.9 | 3.1 | 3.4
2 | CC1(C)C(C=C(Cl)Cl)C1C(=O)OCc1cccc(Oc2ccccc2)c1 (stereo not shown) [Permethrin] | 4.7 | 4.2 | 1.6 | 1.7 |  | 
